Results of single-concentration screens

Measurements from “University of Dundee, Small-Polar-MMV Screening Library” (2021), ChEMBL document CHEMBL3988442.

Each number is a percent effect as filed.
How 0% and 100% were set is not recorded. Most values in the screen are low, and negative values occur.
The compounds are a random part of those screened.
Two or more numbers in one place are separate tests of the same structure; such repeats can differ widely.

Mtb cholesterol medium: 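Growth of Mycobacterium tuberculosis over 4 days (cholesterol / DPPC medium with tyloxapol); the read-out is not stated. Tested at 50 µM. Direction is inferred from retests: higher values go with more growth inhibition. About 69,000 compounds were tested under these conditions; 0.54% (about 370) showed 50% or more at least once.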
Mtb glucose medium: 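Whole-cell growth test on Mycobacterium tuberculosis, read after 3 days in glucose-containing 7H9 medium; the read-out is not stated. Compounds at 50 µM. The record gives no direction; compounds that gave an IC50 in retests scored well above the rest, so higher reads as more growth inhibition. Of about 69,000 compounds tested this way, about 760 (1.1%) reached 50% or more in at least one test.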

SMILES,Mtb cholesterol medium,Mtb glucose medium
COC1CN(C(=O)NC2CCCC2)CCC(=O)N(C)c2ccccc21 (centres undefined),-9.685%,4.582%
COCC1CN(S(=O)(=O)Cc2ccccc2)Cc2c1cnn2C.O=C(O)C(F)(F)F (centres undefined),8.04%,-0.3304% and -18.01%
O=S(=O)(c1ccc(F)cc1)n1cc(Cl)cn1,2.024%,17.96%
CC(=O)N1CC(=O)N(c2cnn(C)c2)CC12CCN(Cc1ccco1)C2 (centres undefined),-1.266% and 17.23%,-3.356%
O=C(O)C(F)(F)F.[H][C@@]12C[C@H](c3nc(C)no3)CN(Cc3cccs3)[C@]1([H])CCO2,10.19%,43.13%
CCOc1cc(Cl)ccc1CNC(=O)N(C)CC(C)(C)O,16.67%,-2.512%
Cn1c2ncccc2c(=O)n1CC(=O)NCCc1c(F)cccc1F,-21.79%,14.27%
COC(=O)c1cccc(C(=O)N2CCN(c3ccc(OC)cc3)CC2)n1,-5.553%,7.653%
CC(C)N1CCC(c2nccnc2Nc2ncccn2)CC1,-1.399%,3.868%
COc1ccnc(CN2CCCC(CCc3ccccc3)C2)c1OC (centres undefined),29.19%,18.91% and 15.41%
O=S(=O)(C1CC1)N1CCC2(CN(c3ncccn3)C2)C1,-21.53%,-16.94%
Cc1nn(C)c(N(C)C)c1CNCC(O)COc1ccc(F)cc1 (centres undefined),-9.618%,2.438% and -0.2478%
CCc1nc(CN(C(C)=O)C2CCN(CCc3cnn(C)c3)C2)no1 (centres undefined),-10.47%,-13.32%
Cn1cnnc1S(=O)(=O)Cc1cc(Cl)c2c(c1)OCCO2,-10.55%,-15.29%
CCN(CCNC(=O)c1cccnc1OCCOC)C1CC1,0.7687%,2.905%
O=C(COc1coc(CN2CCOCC2)cc1=O)c1ccc(Cl)cc1,7.477%,10.24% and 28.88%
CN1CCC(c2cccc(Cc3ccccc3)n2)CC1,7.795%,27.16%
COc1cccc(CN2CCC3(CC2)CCN(C(=O)[C@@H]2CCCO2)C3)c1.O=C(O)C(F)(F)F,2.219% and 2.189%,15.83%
FC(F)(F)c1ccccc1CCC1CCCN(Cc2cscn2)C1 (centres undefined),-14.22%,-50.74%
Cc1ccc(N2CCCN(C(=O)c3cccc4c3ccn4C)CC2)nn1,-3.961%,-13.7%
O=C(CNc1cccc2c1CCCC2)Nc1ccccc1Br,1.269%,19.16% and 18.57%
Cn1ccnc1CN1CCCC(Cc2ccccn2)C1 (centres undefined),6.207%,-4.125%
Cc1ccc(C)c(S(=O)(=O)CCNC2CCc3ncnn3C2)c1 (centres undefined),-15.06%,-20.51%
COc1cccc2c(=O)n(C3CCNCC3)cnc12,-3.17%,-23.44%
CN(CCOCC1CC1)C(=O)Nc1ccc(C#N)c(Cl)c1,-5.49% and 14.78%,-0.6754%
O=C(c1cc(C2CC2)nc2onc(-c3ccccc3)c12)N1CC[C@H](O)C1,-12.05%,-12.53% and -1.223%
CNc1cc(C)nc(NCc2cc(C)cc3c(C)c(C)[nH]c23)n1,72.99%,60.92% and 65.02%
CN(Cc1ccc(C2CC(=O)Nc3cc4[nH]ncc4cc32)o1)S(C)(=O)=O (centres undefined),-6.091% and -8.916%,36.09%
O=C1CCCCN1CSc1nnnn1-c1ccc(Cl)cc1,19.21%,8.19%
CNC(=O)N1CCOCC1c1c(C)nn(C)c1C (centres undefined),-22.41%,-20.88% and 5.503%
O=C(Cn1cc(Cl)cn1)NCCN1CCC(O)(c2ccc(F)cc2)CC1,-17.89% and 1.685%,-19.59%
CNc1ncc(CN(C)c2nc(C)c3ccc(S(C)(=O)=O)cc3n2)cn1,-27.33%,-1.147%
[H][C@@]12C[C@@H](Oc3ccccc3)C[C@]1([H])CN(C(=O)c1cnc(N(C)C)nc1)C2,4.983% and 13.59%,-1.986%
O=S(=O)(CCc1ccccc1Cl)CC(O)CO (centres undefined),0.8433%,-7.157% and -6.903%
Cc1nnc(NCCn2nc(C)c(Cl)c2C)o1,-0.9135%,-27.96%
Cc1cc(S(=O)(=O)NCC[S+](C)[O-])c(F)cc1F (centres undefined),5.779%,26.57%
COc1ccc(Cc2c(O)nc(SC)n(-c3ccccc3)c2=O)cc1,8.722%,-26.24%
CCN(Cc1cnn(C)c1)C[C@H]1CC[C@@H](Cc2cccc(CN)c2)O1,51.85%,26.23%
CCOc1ccc(C(=O)Nc2c(C)nc3ccccn3c2=O)cc1,-24.41%,-14.16%
Cc1cnc(C(=O)N2CCCC(n3ccnc3C)C2)cn1 (centres undefined),7.965%,26.15%
Cc1nc(CN2CCC3(CCN(Cc4nccn4C)CC3)C2=O)cs1.O=C(O)C(F)(F)F.O=C(O)C(F)(F)F,-24.9%,-7.393%
CC(Nc1ccc(CC(=O)N(C)C)cc1)C(=O)N(C)CCC#N (centres undefined),-13.57%,7.003%
COc1ccccc1OCc1cc(C(=O)N2CCC(NC(C)=O)C2)n[nH]1 (centres undefined),-0.05291%,-32.78%
Cc1ccc(-c2ccnc(NC(C)c3ncc[nH]3)n2)c(C)n1 (centres undefined),19.08% and -2.698%,9.595%
COc1ccc(COCC(O)CNC(=O)c2ccc(C#N)cc2)cc1 (centres undefined),-10.8%,17.06%
CC(=O)c1c[nH]c(C(=O)N2CCN(C(C(N)=O)c3ccccc3)CC2)c1 (centres undefined),-69.54%,-29.53%
N#Cc1cccc(N2CC3(CCN(C(=O)NC4CC4)C3)CC2=O)c1 (centres undefined),-11.35%,-18.03%
CCCn1nnc2c(sc3nc(N4CCOCC4)c4c(c32)CCC4)c1=O,-14.9%,-12.24%
O=C(c1cccc(-n2cccn2)c1)N1CCOC(CCO)C1 (centres undefined),-0.8401%,-4.882%
CC(=O)N1CCN(CCCOc2ccccc2F)CC(C(N)=O)C1 (centres undefined),8.928%,21.38%
COCc1nnn2c1CN(C(=O)c1ccnnc1)CCC2,-17.51%,-19.28% and -2.506%
O=C(O)C(F)(F)F.[H][C@@]12CN(Cc3cccc(F)c3)C[C@]1([H])CN(C(=O)c1cccn1C)C2,-9.365%,3.72%
Cc1cc(NC(=O)NCCc2ccsc2)n(C)n1,-9.598%,-3.818% and 6.582%
COc1cccc(CNC(C)C)c1OCc1ccc(C)cc1.Cl,31.59%,19.67%
Cc1ncsc1C(=O)N1CCN(CCC(C)C)CC1,9.134%,3.38%
CC(C)CCOCCNC(=O)Nc1ccc(F)c(C(N)=O)c1,2.321%,23.97%
O=C(NC1CCCCC1)c1ccc(Oc2ccc3nncn3n2)cc1,1.451%,-15.05%
Cc1nc(N2C[C@@H](CN3CCCCC3)[C@@H](CO)C2)c2sccc2n1,-17.79%,-19.13%
CCC(C)C(=O)NCc1ccn(-c2ccc(F)cc2)n1 (centres undefined),-7.47%,-1.491%
[H][C@@]12CCCO[C@]1([H])[C@H](NC(=O)C1CC1)CN2Cc1ccsc1,1.989%,9.568%
Cc1cnc(N2CCOC3(COCCN(c4nccs4)C3)C2)nc1 (centres undefined),-10.26%,-16.08%
Cn1ccnc1CC1CCCN(C(=O)Nc2cccn(C)c2=O)C1 (centres undefined),-5.027% and 6.433%,-13.21%
CCN1CCN(c2ccc(C(=O)NC(C)C(=O)N(C)C)cc2)CC1 (centres undefined),-9.609%,-12.21%
Cn1cccc1C(=O)N1CCC(c2nccn2Cc2ccncc2)CC1,7.254% and -2.242%,-3.618%
CC(O)(CNC(=O)NCCc1ccc2c(c1)CCO2)c1ccccc1 (centres undefined),18.03%,8.962%
Cc1cc(-c2ccc(=O)n(C3CCN(C(=O)C4CCC4)CC3)n2)c(C)o1,-11.92%,-18.66%
[H][C@@]12COC[C@]1(CNS(C)(=O)=O)CN(C(=O)N(C)C)C2,-0.8253%,1.236%
[H][C@]12CN(C(=O)C3CC3)CCN1C[C@H](c1ccccc1)[C@H]2CO,-5.294%,32.82%
Cl.NC(=O)C(c1ccc(F)cc1)N1CCN(CCO)CC1 (centres undefined),8.204%,10.44%
O=C(CCc1nc2cc(Br)cnc2[nH]1)NCCN1CCOCC1,4.145%,3.032%
c1cc(CN2CCC(n3cc(CN4CCCC4)nn3)CC2)cs1,-3.19%,6.685%
Cc1nc2n(n1)CCN(S(=O)(=O)c1ccc(OC(F)(F)F)cc1)C2,3.555%,-1.499% and -9.658%
COc1ccc2c(c1)c(C(=O)Nc1cc(C)n(C)n1)cn2C(C)C,-16.57%,16.2% and 10.47%
O=C(c1cccnc1SC/C=C/c1ccccc1)N1CCOCC(O)C1 (centres undefined),13.22%,22.48%
Cc1[nH]c2ccccc2c1CCNC(=O)N1CCC2(C1)OCCO2,15.4% and -17.11%,6.708%
COc1ccnc(N2CCC(=O)N(CC3CC3)C(C(C)C)C2)n1 (centres undefined),-12.03% and -2.191%,10.45%
N#Cc1cccc(N2CCOC3(CNCCOC3)C2)n1 (centres undefined),-35.5%,-47.94%
CCN1CCCC1CN(CCN(C)C)S(=O)(=O)c1cccc(C#N)c1 (centres undefined),0.07587%,18.14% and 10.58%
COCCN(CCOC)c1ncccc1Cl,-0.4491%,9.841%
Cc1nc(CN(C)Cc2cc3c(cc2OC(F)F)OCO3)cs1,-17.69%,-10.32%
CCCc1n[nH]c(C2CN(CC(=O)N(C)Cc3ccco3)CCO2)n1 (centres undefined),-8.967%,-27.89%